In paper PMC5727433:
No constants are given. Whether binding was seen depends on the method and setting. In cells and extracts the contact can be indirect. Some binding calls cover weakened binding; strength is not graded here.

Target: SMAD2 (human (endogenous in MCF10A-RAS)), Q15796
Experiment: co-IP; endogenous proteins; anti-SMAD2/3 immunoprecipitates from MCF10A-RAS cells treated with TGF-β (5 ng/ml), cells depleted of OTUD1 or expressing Myc-OTUD1-wt/C320A; immunoblot for SMAD4
Conditions: remark: other sources report otherwise

binding: binds
B1: SMAD4, Q13485 1-552 (protein)
chain: MDNMSITNTPTSNDACLSIVHSLMCHRQGGESETFAKRAIESLVKKLKEKKDELDSLITAITTNGAHPSKCVTIQRTLDGRLQVAGRKGFPHVIYARLWRWPDLHKNELKHVKYCQYAFDLKCDSVCVNPYHYERVVSPGIDLSGLTLQSNAPSSMMVKDEYVHDFEGQPSLSTEGHSIQTIQHPPSNRASTETYSTPALLAPSESNATSTANFPNIPVASTSQPASILGGSHSEGLLQIASGPQPGQQQNGFTGQPATYHHNSTTTWTGSRTAPYTPNLPHHQNGHLQHHPPMPPHPGHYWPVHNELAFQPPISNHPAPEYWCSIAYFEMDVQVGETFKVPSSCPIVTVDGYVDPSGGDRFCLGQLSNVHRTEAIERARLHIGKGVQLECKGEGDVWVRCLSDHAVFVQSYYLDREAGRAPGDAVHKIYPSAYIKVFDLRQCHRQMQQQAATAQAAAAAQAAAVAGNIPGPGSVGGIAPAISLSAAAGIGVDDLRRLCILRMSFVKGWGPDYPRQSIKETPCWIEIHLHRALQLLDEVLHTMPIADPQPLD
